From paper PMC11928461 come the findings set out here.

These are yes or no findings as the source states them, for the method shown.

The target in this test is T1, ANXA11 annexin repeat domain (ARD) hemiprotein (human (HeLa cell cDNA)) (UniProt P50995).
T1 sequence: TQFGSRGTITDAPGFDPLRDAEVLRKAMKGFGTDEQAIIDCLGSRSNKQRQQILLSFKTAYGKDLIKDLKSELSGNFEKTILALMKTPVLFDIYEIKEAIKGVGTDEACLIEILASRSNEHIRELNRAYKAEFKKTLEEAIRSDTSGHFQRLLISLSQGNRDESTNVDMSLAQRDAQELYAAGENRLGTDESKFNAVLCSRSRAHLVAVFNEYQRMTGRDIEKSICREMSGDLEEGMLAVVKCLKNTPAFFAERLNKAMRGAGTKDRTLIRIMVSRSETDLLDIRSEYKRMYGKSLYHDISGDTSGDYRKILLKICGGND
In words: recruitment to protein-coated GUVs (confocal fluorescence microscopy); ATTO488 PI(3)P GUVs coated with 0.5 uM ANXA11 FL or 0.5 uM ARD at 100 uM Ca2+, 25 uM AF647-labelled LCD added; both purified.

For “ANXA11 low complexity domain (LCD) hemiprotein (from UniProt P50995 1-185) (domain or fragment)”, the binding entry is “no binding (tested: 25 uM LCD)”.
